From PubChem BioAssay AID186 (DTP/NCI, 2004)
Values are animals surviving of animals treated; these mice carried no tumour. Counts of survivors are from the toxicity check (mostly the fifth day) where no day follows; animals may have died later. Schedule codes are those of the source, taken here to give the interval after Q, in days (D) or hours (H), and the number of doses after X. Some doses were run more than once; their values stand side by side, smallest first.

Test system: B6D2F1 mice, nontumored toxicity test, survival
Assay: NCI In Vivo Anticancer Drug Screen. Data for tumor model Nontumored Animals (Toxicity Test) in B6D2F1 (BDF1) mice

Measured: survivor count

CC[C@]1(O)C[C@H]2CN(CCc3c([nH]c4ccccc34)[C@@](C(=O)OC)(c3cc4c(cc3OC)N(C=O)[C@H]3[C@@](O)(C(=O)OC)[C@H](OC(C)=O)[C@]5(CC)C=CCN6CC[C@]43[C@@H]65)C2)C1
6 of 6: dose: 1.0 mg/kg/injection, schedule: Q08DX002 (ip), vehicle: water | dose: 1.0 mg/kg/injection, schedule: Q08DX003 (ip), vehicle: water | dose: 2.0 mg/kg/injection, schedule: Q08DX002 (ip), vehicle: water | dose: 2.0 mg/kg/injection, schedule: Q08DX003 (ip), vehicle: water | dose: 4.0 mg/kg/injection, schedule: Q08DX002 (ip), vehicle: water | dose: 4.0 mg/kg/injection, schedule: Q08DX003 (ip), vehicle: water
5 of 6: dose: 8.0 mg/kg/injection, schedule: Q08DX003 (ip), vehicle: water
5 of 5: dose: 0.18 mg/kg/injection, schedule: Q01DX009 (ip), vehicle: saline | dose: 0.3 mg/kg/injection, schedule: Q01DX009 (ip), vehicle: saline | dose: 0.36 mg/kg/injection, schedule: Q04DX003 (ip), vehicle: saline | dose: 0.5 mg/kg/injection, schedule: Q01DX009 (ip), vehicle: saline | dose: 0.54 mg/kg/injection, schedule: Q04DX003 (ip), vehicle: saline | dose: 0.6 mg/kg/injection, schedule: Q04DX003 (ip), vehicle: saline | dose: 0.83 mg/kg/injection, schedule: Q01DX009 (ip), vehicle: saline | dose: 0.9 mg/kg/injection, schedule: Q04DX003 (ip), vehicle: saline | dose: 1.67 mg/kg/injection, schedule: Q04DX003 (ip), vehicle: saline
10 of 10 and 5 of 5: dose: 1.0 mg/kg/injection, schedule: Q04DX003 (ip), vehicle: saline
10 of 10: dose: 0.67 mg/kg/injection, schedule: Q04DX003 (ip), vehicle: saline
1 of 2: dose: 2.5 mg/kg/injection, schedule: Q04DX003 (ip), vehicle: saline
2 of 6: dose: 8.0 mg/kg/injection, schedule: Q08DX002 (ip), vehicle: water
10 of 10, 4 of 4, 5 of 5: dose: 1.5 mg/kg/injection, schedule: Q04DX003 (ip), vehicle: saline
4 of 4: dose: 0.38 mg/kg/injection, schedule: Q04DX003 (ip), vehicle: saline | dose: 0.5 mg/kg/injection, schedule: Q04DX003 (ip), vehicle: water | dose: 0.75 mg/kg/injection, schedule: Q04DX003 (ip), vehicle: saline | dose: 1.0 mg/kg/injection, schedule: Q04DX003 (ip), vehicle: water | dose: 2.0 mg/kg/injection, schedule: Q04DX003 (ip), vehicle: water | dose: 3.0 mg/kg/injection, schedule: Q04DX003 (ip), vehicle: saline | dose: 4.0 mg/kg/injection, schedule: Q04DX003 (ip), vehicle: water
